Data from US9777039B2 (Ipsen Pharma S.A.S., priority 2012, dated 2017).

Assays:
[1] = general procedure: Fmoc solid-phase peptide synthesis; Rink amide MBHA resin; Fmoc-Phe-ClTrt resin (0.4699 mmole/g); HCTU (double couplings); PyAOP/HOBt/DIEA for lactam formation; settings: analytical HPLC
[2] = general procedure: Fmoc solid-phase peptide synthesis; Fmoc-4FPhe-ClTrt resin; HCTU (double couplings); PyAOP/HOBt/DIEA for lactam formation; settings: whole synthesis, scale 0.2 mmol
[3] = general procedure: Fmoc solid-phase peptide synthesis; Fmoc-Phe-ClTrt resin; HCTU (double couplings); PyAOP/HOBt/DIEA for lactam formation; settings: whole synthesis, analytical HPLC, scale 0.2 mmol
[4] = whole synthesis, scale of the general procedure 0.2 mmole (2×0.1 mmol each reaction vessel)

Substance | final HPLC purity [1, 4] [%] | other results
1-[(ethan-2-oyl)-Doc-Doc-Tyr-psi(CH2NH)-cyclo(DLys-Arg-Phe-Phe-DTrp-Lys-Thr-Tyr)],4-[(propan-3-oyl)-Doc-Doc-Tyr-psi(CH2NH)-cyclo(DLys-Arg-Phe-Phe-DTrp-Lys-Thr-Tyr)]-1,2,3-triazole | 98.5 | –
1-[(ethan-2-oyl)-Tyr-psi(CH2NH)-cyclo(DLys-Arg-Phe-Phe-DTrp-Lys-Thr-4FPhe)],4-[(propan-3-oyl)-Tyr-psi(CH2NH)-cyclo(DLys-Arg-Phe-Phe-DTrp-Lys-Thr-4FPhe)]-1,2,3-triazole | – | final HPLC purity ([1]; conjugation step): 97.4%
1-[(ethan-2-oyl)-Tyr-psi(CH2NH)-cyclo(DLys-Arg-Phe-Phe-DTrp-Lys-Thr-Tyr)],4-[(propan-3-oyl)-Tyr-psi(CH2NH)-cyclo(DLys-Arg-Phe-Phe-DTrp-Lys-Thr-Tyr)]-1,2,3-triazole | 98.8 | –
DTyr-cyclo(DLys-Arg-Phe-Phe-DTrp-Lys-Thr-4FPhe) | 98.8 | isolated yield ([2]; based on 0.2 mmol scale): 98.8%; isolated mass [2]: 123.1 mg
Tyr-cyclo(DLys-Arg-Phe-4Pal-DTrp-Lys-Thr-Phe) | 98.8 | –
Tyr-cyclo(DLys-Arg-Phe-4Pal-DTrp-Lys-Thr-Tyr) | 94.4 | –
Tyr-psi(CH2NH)-cyclo(DLys-Arg-Phe-4Pal-DTrp-Lys-Thr-Phe) | – | final HPLC purity [3]: 97.5%
cyclo([dK]RFF[dW]KTF) | 99.7 | –
cyclo([dK]RFF[dW]KT[Phe(4-F)]) | 99.5 | –
cyclo([dK]RF[4Pal][dW]KTF) | 98.9 | –
cyclo([dK]RF[4Pal][dW]KTY) | 99.3 | –

Non-standard residues stand in square brackets, D forms with d. Phe(4-F) = N[C@@H](Cc1ccc(F)cc1)C(=O)O; 4Pal = N[C@@H](Cc1ccncc1)C(=O)O
